Source: patent publication US20220370502A1, “Active Ingredient of an Erythrocytes-containing Composition” (priority 2020, published 2022)
For at least one compound, name, drawing or mass did not settle the structure.

Experiments:
human erythrocytes [1] = assay: Intracellular GSH and GSSG analysis; assay type: cell-based; details: chelerythrine 1-10 μM for 26 h, costunolide 80 μM for 24 h, FIG. 7
Protocol: For single (FIG. 5) or double treatments (FIG. 7), pure RBCs (0.6% Hct) were suspended in 30 ml Ringer solution and treated with varying concentrations of costunolide (1-80 μM) or different concentrations of chelerythrine (1-10 μM) and a fixed costunolide concentration (80 μM). DMSO-treated RBCs served as negative control. After incubation, 58 μl from a 310 mM NEM stock was given to each condition, gently mixed for 1 min and then centrifuged 10 min long at 10 C and 228×g. Supernatants were removed and the cell pellets were stored at −20° C. until analyses. GSH and GSSG were measured on the clear supernatant obtained by treatment of 0.1 ml RBCs with 0.12 ml 15% (w/v) trichloroacetic acid. […] GSSG was measured at the spectrophotometer by the GSH recycling method with slight modifications (Giustarini D. et al. 2013; Nat. Protoc. 8: 1660-1669, “Analysis of GSH and GSSG after derivatization with N-ethylmaleimide”). One aliquot of RBCs ([…]) was hemolyzed by a 1:200 dilution with H2O for haemoglobin determination (Di lorio E.E. 1981; Methods Enzymol. 76: 57-72 “Preparation of derivatives of ferrous and ferric hemoglobin”). The HPLC analyses were carried out by an Agilent series 1100 instrument. The spectrophotometric analyses were performed by a Jasco V-530 instrument.

human erythrocytes [2] = assay: Erythrocyte volume by forward scatter (cell shrinkage); assay type: cell-based
Protocol: (§1) Single treatment: Erythrocytes were treated with costunolide or chelerythrine for 24 hours (see FIGS. 2, 4, 5 and 6). Double treatments: Erythrocytes were first pre-treated with chelerythrine for two hours, followed by treatment with costunolide for further 24 hours (see FIGS. 3 and 7). Thus, the incubation time for chelerythrine-treated erythrocytes lasted 26 h and 24 h for costunolide-treated erythrocytes. In single (0.2% v/v DMSO) and double treatments (0.4% v/v DMSO), DMSO-treated cells served as negative controls. […]
(§2) At the end of the incubation period, 0.1 ml erythrocytes (3×10^6) were added in 500 μl annexin wash buffer, mixed thoroughly and pelleted by centrifuging. […] After an incubation period of 20 minutes in the dark at room temperature, 200 μl annexin binding buffer was added to each sample, thoroughly vortexed to obtain single cell suspensions, and analyzed by flow cytometry on a FACS Calibur (Becton Dickinson, Heidelberg, Germany). In the FL1-channel, binding of annexin-V-FLUOS (eryptosis) was measured. Erythrocyte volume was determined by forward scatter (FSC). To this end, corresponding erythrocytes suspensions were immediately analysed by flow cytometry.

human erythrocytes [3] = assay: Annexin-V-FLUOS binding (eryptosis) by flow cytometry; assay type: cell-based
Protocol: as §1, §2

[4] = tested on: protein kinase C alpha (PKC-α); details: Herbert J.M. et al. 1990; Hu B. et al. 2017; cited from earlier work
[5] = chelerythrine 0.5 to 10 μM, 24 h, FIG. 4
[6] = chelerythrine 1 to 10 μM pre-treatment for 2 h, then costunolide 80 μM for 24 h, FIG. 3

COc1ccc2c(c[n+](C)c3c4cc5c(cc4ccc23)OCO5)c1OC [chelerythrine, 1,2-Dimethoxy-12-methyl[1,3]benzodioxolo[5,6-c]phenanthridinium]
effect on costunolide-induced GSH depletion (human erythrocytes [1]): does not affect costunolide-induced GSH- and GSSG-depletion | effect on costunolide-induced GSSG depletion (human erythrocytes [1]): does not affect costunolide-induced GSH- and GSSG-depletion | inhibition of glucose depletion-induced cell shrinkage (human erythrocytes [2]; [5]): able to downregulate any kind of stressor-induced eryptosis and cell shrinkage | inhibition of costunolide-induced cell shrinkage (human erythrocytes [2]; [6]): able to inhibit costunolide-induced eryptosis and cell shrinkage | inhibition of glucose depletion-induced eryptosis (human erythrocytes [3]; [5]): able to downregulate any kind of stressor-induced eryptosis | inhibition of costunolide-induced eryptosis (human erythrocytes [3]; [6]): able to inhibit costunolide-induced eryptosis | inhibition of protein kinase C alpha (PKC-α) [4]: potent, selective and cell-permeable inhibitor
